Assay results: paper PMC3617406 (Molecular pharmaceutics, 2013)

Tests used:
human NTCP = biological target: T1, human NTCP (Homo sapiens, UniProt Q14973); type: cell-based; settings: for potency estimated from few doses: read-out: Estimated Ki for NTCP
T1 sequence (Q14973 1-349): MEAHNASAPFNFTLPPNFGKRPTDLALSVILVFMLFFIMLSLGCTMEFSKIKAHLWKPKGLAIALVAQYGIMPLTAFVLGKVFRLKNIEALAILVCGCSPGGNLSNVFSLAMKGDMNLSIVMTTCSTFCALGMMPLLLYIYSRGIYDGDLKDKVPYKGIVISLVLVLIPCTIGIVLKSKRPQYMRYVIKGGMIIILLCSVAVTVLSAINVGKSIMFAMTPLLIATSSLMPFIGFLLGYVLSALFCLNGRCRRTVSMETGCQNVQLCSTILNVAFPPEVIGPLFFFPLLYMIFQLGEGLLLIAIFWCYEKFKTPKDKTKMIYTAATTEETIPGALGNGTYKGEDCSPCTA

human ASBT = biological target: T2, human ASBT (Homo sapiens, UniProt Q12908); type: cell-based; settings: for ASBT inhibitor or non-inhibitor: inhibitor = Ki below 300 μM; for potency estimated from few doses: read-out: Estimated Ki for ASBT
T2 sequence (Q12908 1-348): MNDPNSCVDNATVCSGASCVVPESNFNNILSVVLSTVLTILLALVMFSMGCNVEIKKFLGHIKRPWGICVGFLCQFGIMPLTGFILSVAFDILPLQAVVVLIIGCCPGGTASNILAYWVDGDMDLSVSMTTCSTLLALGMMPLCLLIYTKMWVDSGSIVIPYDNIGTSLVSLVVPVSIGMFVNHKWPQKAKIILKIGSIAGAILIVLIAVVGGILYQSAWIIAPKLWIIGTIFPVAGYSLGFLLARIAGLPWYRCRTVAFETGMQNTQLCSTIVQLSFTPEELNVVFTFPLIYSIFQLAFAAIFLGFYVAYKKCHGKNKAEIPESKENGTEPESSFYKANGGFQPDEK

## Clc1ccc(CO/N=C(\Cn2ccnc2)c2ccc(Cl)cc2Cl)c(Cl)c1 [Oxiconazole]
Human NTCP
  potency estimated from few doses: > 50 µM
Human ASBT; Ki values of Table 4 and 5
  fold more potent ASBT inhibition than NTCP inhibition: ≥ 10 fold
Human ASBT
  ASBT inhibitor or non-inhibitor: ASBT inhibitors
  potency estimated from few doses: 94.7 ± 38 µM

## Clc1ccc(CSC(Cn2ccnc2)c2ccc(Cl)cc2Cl)cc1 (centres unmarked) [Sulconazole]
Human NTCP; inhibitor = Ki less than 300 μM
  NTCP inhibitor or non-inhibitor: NTCP inhibitors
Human NTCP
  potency estimated from few doses: 112 ± 115 µM
Human ASBT
  ASBT inhibitor or non-inhibitor: ASBT inhibitors
  potency estimated from few doses: 29.4 ± 0.6 µM
